# Laboratory results reported in PubChem BioAssay AID2417 (National Center for Advancing Translational Sciences (NCATS), 2010).
# The whole screen tested about 140,000 compounds, of which about 4,300 (3.1%) were called active. The shares of active, inactive and inconclusive entries below differ from those in the screen.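 The calls were made as follows: active = readout at or below -70, meaning at least 70% loss of cells showing the perinucleolar compartment, a nuclear body marking cancer cells; inconclusive = readout between -30 and a set limit; inactive = the rest.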
# Test: High Content Assay for Compounds that inhibit the Assembly of the Perinucleolar Compartment;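 also: plate controls were DMSO wells for no effect and camptothecin positive control wells for full effect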
# Details: PC3M PTB-GFP, PNC prevalence imaging, 16 h; at 10 µM; hits give low values
# Procedure, shortened: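 Read-out is percentage of cells bearing a perinucleolar compartment, from automated 20x imaging of fixed, Hoechst-stained PC3M PTB-GFP cells. Cells were seeded 4 h, then exposed 16 h to compound (23 nl of library stock) in duplicate plates.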
row,SMILES,"activity change (PNC), negative = inhibition"
1,CCc1ccc(C(C)NC(=O)/C(C#N)=C\c2cn[nH]c2-c2ccccc2)cc1 (centres undefined),inactive: 7.36%
2,CC(O)Cn1c(=O)c2c(nc(Br)n2Cc2ccccc2)n(C)c1=O (centres undefined),active: -119%
3,N#CCCn1c(C(C#N)(CCC#N)CCC#N)nc2ccccc21,inconclusive: -48.6%
4,CC(C)c1ccc(-c2c(C#N)c(N)nc(SCC(=O)N3CCCCC3)c2C#N)cc1,inactive: 47.6%
5,Cc1ccccc1N1C(=O)CC(N2CCC(C(N)=O)CC2)C1=O (centres undefined),inconclusive: -55.9%
6,CCOc1ccc(NC(=O)CN2CCN(CC(=O)Nc3ccc4c(c3)OCCO4)CC2)cc1,inconclusive: -36%
7,O=c1ccc2cc(S(=O)(=O)N3CCN(c4cc(Cl)ccc4Cl)CC3)ccc2o1,inactive: -9.48%
8,CCOc1cc(C(=O)CCC(=O)OCC(=O)N2c3ccccc3NC(=O)C2(C)C)ccc1O,inactive: -21.3%
9,NS(=O)(=O)c1ccc(NC(=O)c2cc(-c3cccs3)nc3ccccc23)cc1,active: -115%
10,CCCc1nc(SCC(=O)Nc2ccccc2OC)c2c(=O)n(C)c(=O)n(C)c2n1,inconclusive: -35.4%
11,CCOC(=O)c1nn(-c2ccccc2C)c2nc(-c3ccc(Cl)cc3)c(C#N)c(=O)n12,inconclusive: -48.7%
12,CCOc1ccccc1N1CCN(CC(O)COc2ccc3c(C)cc(=O)oc3c2)CC1 (centres undefined),inconclusive: -75.5%
13,COc1ccc(COc2cc(-c3cccc(OC)c3)nc3ccc(N)cc23)cc1,inconclusive: -70.2%
14,CCc1nnc(NC(=O)c2ccc(S(=O)(=O)N3CCc4ccccc4C3)cc2)s1,active: -85.1%
15,Cc1nnc(SCC2CCCO2)n1-c1ccccc1 (centres undefined),inconclusive: -49.5%
16,O=S(=O)(c1cccc(S(=O)(=O)N2CCC(Cc3ccccc3)CC2)c1)N1CCOCC1,inconclusive: -35.1%
17,COc1ccc(C(=O)/C=C/Nc2ccc(S(=O)(=O)Nc3ncccn3)cc2)cc1,inconclusive: -31.9%
18,Cc1ccsc1/C=C(\C#N)C(=O)Nc1c(C)n(C)n(-c2ccccc2)c1=O,inconclusive: -35%
19,O=[N+]([O-])c1ccc2c(c1)C=C1CCCCC1(N1CCCCC1)O2 (centres undefined),inactive: 20.3%
20,Cc1ccccc1OCCCC(=O)Nc1ccccc1C(F)(F)F,inactive: 62.5%
21,CC1=CC(=O)C(C(C)C)=C/C1=N\OC(=O)c1cccc2nc(C)oc12,inconclusive: -35.9%
22,Cc1ccccc1NC(=O)c1sc(NC(=O)COc2ccccc2)c(C#N)c1C,inactive: 16.5%
23,Cc1ccc(NC(=O)COc2cccc3ccc(C)nc23)c(Br)c1,inactive: -16%

row,SMILES,"activity change (PNC), negative = inhibition"
1,CC(C)NS(=O)(=O)c1ccc(CCC(=O)N2CCOCC2)cc1,inconclusive: -49.6%
2,COC(=O)c1ccccc1NC(=O)CSc1nnc(-c2ccncc2)o1,inactive: 3.88%
3,COc1ccc(N2CCN(C(=O)C(C)(C)Oc3ccc(Cl)cc3)CC2)cc1,inconclusive: -44.9%
4,CC(C)OC(=O)c1cc(NC(=O)C2C3CCC(O3)C2C(=O)O)cc(C(=O)OC(C)C)c1 (centres undefined),inconclusive: -60.2%
5,O=C(CSc1ccc(-c2ccco2)nn1)c1ccc(F)cc1,inactive: -21.9%
6,O=C(CSc1ccccc1)Nc1ccc(S(=O)(=O)NCC2CCCO2)cc1 (centres undefined),inconclusive: -38.4%
7,Cc1ccc(NC(=O)C(CC(C)C)NC(=O)C2CCC(C)CC2)nc1 (centres undefined),inconclusive: -55.4%
8,COCCCNC(=O)c1cc2c(=O)n3cc(C)ccc3nc2nc1NCC1CCCO1 (centres undefined),inconclusive: -36.3%
9,C/C(=N\NC(=O)OC(C)(C)C)c1cccc([N+](=O)[O-])c1,inconclusive: -52%
10,C[N+]1(CC2COC3(CCCCC3)O2)CCCC1 (centres undefined),inconclusive: -52.8%
11,Cc1ccc(N2CS(=O)(=O)/C(=C/N(C)C)C2=O)cc1,inactive: -2.23%
12,CCc1ccc(C(=O)COC(=O)C(CCSC)NC(=O)c2ccccc2)cc1 (centres undefined),inactive: 172%
13,Cc1ccnc(NC(=O)CCC(=O)N(CC(=O)NC2CCCCC2)Cc2ccc3c(c2)OCO3)c1,inactive: -24.7%
14,CCN(CC)c1ccc(NC(=O)Cn2cc3c(n2)CCC(C)C3)c(C)c1 (centres undefined),inconclusive: -54.4%
15,O=C(O)C1C2C=CC(C2)C1C(=O)NCc1ccc(Cl)c(Cl)c1 (centres undefined),inconclusive: -39%
16,O=c1[nH]c2ccc(S(=O)(=O)N3CCN(Cc4ccccc4)CC3)cc2[nH]c1=O,inconclusive: -40.5%
17,CCOc1ccc(N2CC(C(=O)OC)CC2=O)cc1 (centres undefined),inconclusive: -55.1%
18,COc1ccc(OCCNC(=O)c2ccccc2OCC(=O)N2CCCCC2)cc1,inconclusive: -34.2%
19,NC(=O)CCNC(=O)c1ccc(Cl)cc1,inconclusive: -56.2%
20,NC(=O)C1CCN(C(=O)C2c3ccccc3C(=O)N3CCc4ccccc4C23)CC1 (centres undefined),inconclusive: -43.8%
21,CC1CC1C(=O)OCC(=O)NCc1ccccc1Cl (centres undefined),inactive: 29.6%
22,O=C(CSc1ccc2nnc(-c3ccc(F)cc3)n2n1)N1CCCc2ccccc21,inconclusive: -44%
23,CSc1ccccc1C(=O)Nc1cccc(N(C)S(C)(=O)=O)c1,inconclusive: -40.1%

row,SMILES,"activity change (PNC), negative = inhibition"
1,COc1nc(-c2ccc(Cl)cc2)ccc1-c1noc(-c2ccco2)n1,inconclusive: -41.9%
2,CC(C)Cc1ccc(/C=C/C(=O)NC2CC2)cc1,inconclusive: -41.1%
3,COc1cccc(-c2cc(C(=O)Nc3c(C)n(C)n(-c4ccccc4)c3=O)no2)c1,inconclusive: -43.5%
4,O=C(NN1c2ccccc2CCc2ccccc21)c1ccccc1Br,inconclusive: -31.6%
5,CC(C)CNC(=O)c1noc2c1CCCC2,inconclusive: -71.4%
6,CCOCCOCN(C#N)c1nc(OC)nc(N(C)C)n1,inconclusive: -40.6%
7,CC(C(=O)NC1=NCCS1)(C(F)(F)F)C(F)(F)F,inconclusive: -55.3%
8,O=C(O)CCCC(=O)NNc1ncnc2ccccc12,inconclusive: -48.6%
9,O=c1c2ccccc2nc(/C=C/c2ccc([N+](=O)[O-])o2)n1CCCO,active: -88.6%
10,CCOc1cc(CNc2ccccc2)cc(Br)c1OCc1ccccc1F,inconclusive: -32.5%
11,CCOC(=O)c1c(NC(=O)CSc2nnc(C)c(=O)[nH]2)sc2c1CCC2,inconclusive: -61.2%
12,Cc1ccnc(SCC(=O)Nc2sc3c(c2C#N)CCCC3)n1,inconclusive: -40.3%
13,COc1ccc(C(=O)c2ccc(Cl)c([N+](=O)[O-])c2)cc1,inconclusive: -68%
14,Cc1cc(C)c(S(=O)(=O)Nc2ccc(O)cc2)c(C)c1,inconclusive: -60.9%
15,CC(C)CC1C(C#N)=C(N)Oc2n[nH]c(-c3ccccc3)c21 (centres undefined),active: -100%
16,CCCN(CC1CC1)C(=O)COc1ccccc1C(=O)NCc1ccccc1,inconclusive: -38.1%
17,COc1ccc(-c2nc(NC(=O)C3CC(=O)N(c4ccc5c(c4)OCCO5)C3)sc2C)cc1 (centres undefined),inconclusive: -74.2%
18,Cc1nn(-c2cc(N3CCOCC3)ccc2N)c(=O)c2ccccc12,inconclusive: -53.9%
19,C=CCOc1ccc(CNc2nccs2)cc1OCC,inactive: 73.8%
20,O=C(CCCCCCCC(=O)NCC1CCCO1)NCC1CCCO1 (centres undefined),inactive: -7.12%
21,COCCn1c(=O)[nH]c2cc(C(=O)NCCN3CCN(c4ccc(OC)cc4)CC3)ccc2c1=O,inactive: -24%
22,CC(C)(C)c1cc(C(=O)Nc2ccccc2)ccn1,active: -122%
23,CC(C)(C)NS(=O)(=O)c1ccc(CCC(=O)NCc2cccnc2)cc1,inconclusive: -43.1%

row,SMILES,"activity change (PNC), negative = inhibition"
1,Cc1nn2c(NCCCN3CCOCC3)c3c(nc2c1-c1ccccc1)CCC3,inconclusive: -45.2%
2,O=C(Nc1nncs1)c1cccc(S(=O)(=O)N2CCCC2)c1,inconclusive: -36.4%
3,c1ccc2c(c1)[nH]c1c(N3CCCC3)ncnc12,inactive: 44.7%
4,CCCCC(=O)Nc1cc(NC(=O)CCCC)cc(C(=O)O)c1,inconclusive: -58.8%
5,NCCCCCc1nnc(SCc2ccc(Cl)cc2Cl)o1,inconclusive: -31.4%
6,N#Cc1nc(-c2ccc(OCc3ccccc3)cc2)oc1NCc1cccnc1,inconclusive: -53.9%
7,COc1ccc2c(c1)OC13CCCCC1C2C(C(=O)c1ccccc1)C(=O)N3 (centres undefined),inactive: 16.7%
8,Cc1ccc(Cl)cc1N1CCN(Cc2cc3c(cc2O)CCC3)CC1,inactive: -16.3%
9,COc1cccc(NC(=O)Cn2cnc3sc(C)c(S(=O)(=O)N4CCCCC4)c3c2=O)c1,inconclusive: -34.7%
10,COC(=O)NCC(c1cccnc1)N1CCN(c2ccccc2OC)CC1 (centres undefined),inactive: 16.3%
11,COc1cccc(Nc2nc(-c3cccs3)nc3ccccc23)c1,inactive: -10.7%
12,Cc1cccc(COCC(Cc2ccccc2)N2CCN(C(=O)c3cccc(C)c3)CCC2=O)c1 (centres undefined),inconclusive: -30.7%
13,CCOc1ccc(S(=O)(=O)NCCSc2ccccc2)cc1,inconclusive: -62.5%
14,COc1ccc(Cn2nnnc2CN2CCc3ccccc3C2)cc1,inactive: -1.86%
15,C=CCN(CC=C)C(=S)NC(=O)c1ccc(-c2ccccc2)cc1,inconclusive: -43.5%
16,O=C(Cn1nnc(-c2ccccc2)n1)N/N=C/c1cc([N+](=O)[O-])ccc1O,inconclusive: -43%
17,Cc1ccc(C(=O)Nc2ccc(C)c(S(=O)(=O)Nc3ccccc3Cl)c2)s1,inconclusive: -57.7%
18,Cc1cc(OC(=O)CNC(=O)OC(C)(C)C)c2c(C)cc(=O)oc2c1,inactive: 16.5%
19,CC(C)CNS(=O)(=O)c1ccc(CCC(=O)NCC2CCCO2)cc1 (centres undefined),inconclusive: -74.5%
20,COc1ccc(-c2noc(-c3ccccc3Cl)n2)cc1OC,inconclusive: -44.3%

# Shown bar-delimited: part of the list above.
row | SMILES | activity change (PNC), negative = inhibition
7 | Cc1ccc(NC(=O)C(CC(C)C)NC(=O)C2CCC(C)CC2)nc1 (centres undefined) | inconclusive: -55.4%
16 | O=c1[nH]c2ccc(S(=O)(=O)N3CCN(Cc4ccccc4)CC3)cc2[nH]c1=O | inconclusive: -40.5%
5 | CC(C)CNC(=O)c1noc2c1CCCC2 | inconclusive: -71.4%
9 | COc1cccc(NC(=O)Cn2cnc3sc(C)c(S(=O)(=O)N4CCCCC4)c3c2=O)c1 | inconclusive: -34.7%

# A second format for some results above.
row | SMILES | activity change (PNC), negative = inhibition
7 | COc1ccc2c(c1)OC13CCCCC1C2C(C(=O)c1ccccc1)C(=O)N3 (centres undefined) | inactive: 16.7%
13 | CCOc1ccc(S(=O)(=O)NCCSc2ccccc2)cc1 | inconclusive: -62.5%
16 | O=C(Cn1nnc(-c2ccccc2)n1)N/N=C/c1cc([N+](=O)[O-])ccc1O | inconclusive: -43%
